These are yes or no findings as the source states them, for the method shown. Binding seen in cells or lysates may run through a third protein. Some results given as binding are weak or reduced against the parent protein; the word gives no strength. For some assays here: Where a sequence is shown, tags or fusion partners need not be part of it.
Columns and labels:
[1] = target: Myc-BMPR2-S532X (UniProt Q13873); test: co-IP; HEK293 cells cotransfected with Myc-BMPR2 or Myc-BMPR2-S532X and tagged β-arrestin1/2; lysates incubated overnight at 4°C with anti-Myc sepharose (Pierce Crosslink IP Kit), eluted with 0.5 mg/ml c-Myc peptide, immunoblot; no ligand (constitutive)
[2] = target: Myc-tagged full length BMPR2 (UniProt Q13873); test: as above
[3] = target: GFP-tagged β-arrestin1 (UniProt P49407); test: co-IP; HEK293 cells cotransfected with GFP-β-arrestin1 (or GFP control) and Myc-IFT81; NP-40 lysates precipitated with mouse anti-GFP antibody and protein A/G agarose at 4°C; blot with anti-Myc and anti-GFP

Sequences of proteins named here, by UniProt entry; tags and fusion partners are left off. A change or cut given only in a name is not applied to a line headed by its entry. A line that says so, or that is headed by a name, gives the form on record, which may keep a tag or linker. Residues count along the entry.
UniProt Q13873: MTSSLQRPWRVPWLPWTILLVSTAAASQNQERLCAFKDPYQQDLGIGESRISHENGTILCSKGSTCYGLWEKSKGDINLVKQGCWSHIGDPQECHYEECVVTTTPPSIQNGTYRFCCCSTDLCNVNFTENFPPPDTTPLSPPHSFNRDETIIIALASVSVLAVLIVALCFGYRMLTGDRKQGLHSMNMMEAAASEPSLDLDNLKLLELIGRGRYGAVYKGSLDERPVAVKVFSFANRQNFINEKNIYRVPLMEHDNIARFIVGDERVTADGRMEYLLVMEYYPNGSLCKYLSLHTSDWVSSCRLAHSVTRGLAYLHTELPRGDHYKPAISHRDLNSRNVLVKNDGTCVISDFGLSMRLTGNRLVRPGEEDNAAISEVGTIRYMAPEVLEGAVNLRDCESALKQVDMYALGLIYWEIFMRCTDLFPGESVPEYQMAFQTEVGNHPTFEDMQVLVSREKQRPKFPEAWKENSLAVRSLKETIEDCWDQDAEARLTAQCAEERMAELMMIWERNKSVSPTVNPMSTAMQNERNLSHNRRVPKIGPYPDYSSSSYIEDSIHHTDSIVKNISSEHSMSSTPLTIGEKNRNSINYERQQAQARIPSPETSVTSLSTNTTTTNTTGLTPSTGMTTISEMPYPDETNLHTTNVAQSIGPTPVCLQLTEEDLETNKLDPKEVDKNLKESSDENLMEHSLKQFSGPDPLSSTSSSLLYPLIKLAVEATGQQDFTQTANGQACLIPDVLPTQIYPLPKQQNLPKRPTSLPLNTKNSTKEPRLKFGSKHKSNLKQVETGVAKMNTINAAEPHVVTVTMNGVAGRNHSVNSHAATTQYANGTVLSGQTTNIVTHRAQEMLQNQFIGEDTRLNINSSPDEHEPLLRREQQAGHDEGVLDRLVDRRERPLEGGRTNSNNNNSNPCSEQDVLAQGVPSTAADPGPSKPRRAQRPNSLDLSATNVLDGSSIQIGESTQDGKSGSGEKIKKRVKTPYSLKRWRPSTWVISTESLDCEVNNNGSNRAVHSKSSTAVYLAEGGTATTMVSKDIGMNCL
Myc-tagged full length BMPR2: residues 27-1038 of Q13873
Myc-BMPR2-S532X: residues 27-531 of Q13873
UniProt P49407: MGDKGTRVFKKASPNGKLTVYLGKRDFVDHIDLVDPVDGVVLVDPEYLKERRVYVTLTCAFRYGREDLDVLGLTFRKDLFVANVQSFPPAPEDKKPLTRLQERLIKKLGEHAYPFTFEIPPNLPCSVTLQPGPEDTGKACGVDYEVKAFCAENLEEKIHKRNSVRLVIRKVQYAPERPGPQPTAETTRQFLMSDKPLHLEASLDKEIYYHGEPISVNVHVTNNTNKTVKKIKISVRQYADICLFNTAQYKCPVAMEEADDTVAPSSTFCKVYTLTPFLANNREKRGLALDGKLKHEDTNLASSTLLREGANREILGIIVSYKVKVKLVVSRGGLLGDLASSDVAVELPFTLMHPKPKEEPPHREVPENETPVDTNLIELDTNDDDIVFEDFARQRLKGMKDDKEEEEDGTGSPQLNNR
UniProt P29066: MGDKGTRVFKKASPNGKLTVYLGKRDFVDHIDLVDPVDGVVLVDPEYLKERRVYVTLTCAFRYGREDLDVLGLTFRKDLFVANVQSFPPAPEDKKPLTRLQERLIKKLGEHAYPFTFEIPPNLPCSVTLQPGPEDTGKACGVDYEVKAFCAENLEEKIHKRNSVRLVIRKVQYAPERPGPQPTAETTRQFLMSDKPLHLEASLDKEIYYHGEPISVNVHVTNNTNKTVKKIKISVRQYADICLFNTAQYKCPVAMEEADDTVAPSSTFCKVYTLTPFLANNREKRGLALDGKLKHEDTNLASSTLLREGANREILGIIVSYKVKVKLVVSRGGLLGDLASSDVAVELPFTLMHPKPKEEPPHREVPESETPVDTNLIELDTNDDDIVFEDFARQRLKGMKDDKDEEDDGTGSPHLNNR
UniProt P29067: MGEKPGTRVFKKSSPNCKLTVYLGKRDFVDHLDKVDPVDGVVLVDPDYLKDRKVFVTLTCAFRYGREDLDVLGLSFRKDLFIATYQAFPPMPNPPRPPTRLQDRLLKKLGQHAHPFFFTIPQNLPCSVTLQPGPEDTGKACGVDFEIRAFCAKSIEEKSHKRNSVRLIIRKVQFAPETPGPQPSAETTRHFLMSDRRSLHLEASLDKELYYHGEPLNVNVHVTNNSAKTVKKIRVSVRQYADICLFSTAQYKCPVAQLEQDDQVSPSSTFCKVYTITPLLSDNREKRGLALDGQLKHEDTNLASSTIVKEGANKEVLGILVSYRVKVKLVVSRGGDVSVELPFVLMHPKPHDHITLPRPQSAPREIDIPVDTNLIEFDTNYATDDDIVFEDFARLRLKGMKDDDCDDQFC

Molecule: β-arrestin1 (HA- or FLAG-tagged, overexpressed) (from UniProt P29066 1-418)
- binding [1]: binds
- binding [2]: binds

Molecule: β-arrestin2 (HA- or FLAG-tagged, overexpressed) (from UniProt P29067 1-410)
- binding [1]: binds
- binding [2]: binds

B1: Myc-tagged IFT81 (protein, UniProt Q8WYA0 1-676)
chain: MSDQIKFIMDSLNKEPFRKNYNLITFDSLEPMQLLQVLSDVLAEIDPKQLVDIREEMPEQTAKRMLSLLGILKYKPSGNATDMSTFRQGLVIGSKPVIYPVLHWLLQRTNELKKRAYLARFLIKLEVPSEFLQDETVADTNKQYEELMEAFKTLHKEYEQLKISGFSTAEIRKDISAMEEEKDQLIKRVEHLKKRVETAQNHQWMLKIARQLRVEKEREEYLAQQKQEQKNQLFHAVQRLQRVQNQLKSMRQAAADAKPESLMKRLEEEIKFNLYMVTEKFPKELENKKKELHFLQKVVSEPAMGHSDLLELESKINEINTEINQLIEKKMMRNEPIEGKLSLYRQQASIISRKKEAKAEELQEAKEKLASLEREASVKRNQTREFDGTEVLKGDEFKRYVNKLRSKSTVFKKKHQIIAELKAEFGLLQRTEELLKQRHENIQQQLQTMEEKKGISGYSYTQEELERVSALKSEVDEMKGRTLDDMSEMVKKLYSLVSEKKSALASVIKELRQLRQKYQELTQECDEKKSQYDSCAAGLESNRSKLEQEVRRLREECLQEESRYHYTNCMIKNLEVQLRRATDEMKAYISSDQQEKRKAIREQYTKNTAEQENLGKKLREKQKVIRESHGPNMKQAKMWRDLEQLMECKKQCFLKQQSQTSIGQVIQEGGEDRLIL
- binding [3]: binds

Source: publication PMC9751664
